# Laboratory results: the supplement of paper PMC8728848
# Some of the results follow.
# Legend:
# Assay in all cases: glycan array binding signal (z-score within array); higher = stronger binding
# Conditions in all cases: glycan notation: IUPAC condensed, linker removed
# [1] = target: Gal(b1-4)GlcNAc(b1-3)Gal(b1-4)Glc
# Procedure, shortened: (§1)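 The binding signal is a Z-score computed within each array and averaged over linkers. Arrays of the same protein sequence at different concentrations or buffers were also averaged together. Data originate from 3228 arrays in the Consortium for Functional Glycomics database, kept only where the protein sequence was available.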
# [2] = target: Gal(b1-4)GlcNAc(b1-3)Gal(b1-4)GlcNAc
# Procedure, shortened: as §1
# [3] = target: Gal(b1-4)GlcNAc(b1-3)Gal(b1-4)GlcNAc(b1-2)Man(a1-3)[Gal(b1-4)GlcNAc(b1-3)Gal(b1-4)GlcNAc(b1-2)Man(a1-6)]Man(b1-4)GlcNAc(b1-4)GlcNAc
# Procedure, shortened: as §1
# [4] = target: Gal(b1-4)GlcNAc(b1-3)Gal(b1-4)GlcNAc(b1-2)Man(a1-3)[Gal(b1-4)GlcNAc(b1-3)Gal(b1-4)GlcNAc(b1-2)Man(a1-6)]Man(b1-4)GlcNAc(b1-4)[Fuc(a1-6)]GlcNAc
# Procedure, shortened: as §1
# [5] = target: Gal(b1-4)GlcNAc(b1-3)Gal(b1-4)GlcNAc(b1-2)[Gal(b1-4)GlcNAc(b1-3)Gal(b1-4)GlcNAc(b1-6)]Man(a1-6)[Gal(b1-4)GlcNAc(b1-3)Gal(b1-4)GlcNAc(b1-2)Man(a1-3)]Man(b1-4)GlcNAc(b1-4)GlcNAc
# Procedure, shortened: as §1
# [6] = target: Gal(b1-4)GlcNAc(b1-3)Gal(b1-4)GlcNAc(b1-2)[Gal(b1-4)GlcNAc(b1-3)Gal(b1-4)GlcNAc(b1-6)]Man(a1-6)[Gal(b1-4)GlcNAc(b1-3)Gal(b1-4)GlcNAc(b1-2)Man(a1-3)]Man(b1-4)GlcNAc(b1-4)[Fuc(a1-6)]GlcNAc
# Procedure, shortened: as §1
# [7] = target: Gal(b1-4)GlcNAc(b1-3)Gal(b1-4)GlcNAc(b1-3)Gal(b1-4)GlcNAc
# Procedure, shortened: as §1
# [8] = target: Gal(b1-4)GlcNAc(b1-3)Gal(b1-4)GlcNAc(b1-3)Gal(b1-4)GlcNAc(b1-2)Man(a1-3)[Gal(b1-4)GlcNAc(b1-3)Gal(b1-4)GlcNAc(b1-3)Gal(b1-4)GlcNAc(b1-2)Man(a1-6)]Man(b1-4)GlcNAc(b1-4)GlcNAc
# Procedure, shortened: as §1
# [9] = target: Gal(b1-4)GlcNAc(b1-3)Gal(b1-4)GlcNAc(b1-3)Gal(b1-4)GlcNAc(b1-2)Man(a1-3)[Gal(b1-4)GlcNAc(b1-3)Gal(b1-4)GlcNAc(b1-3)Gal(b1-4)GlcNAc(b1-2)Man(a1-6)]Man(b1-4)GlcNAc(b1-4)[Fuc(a1-6)]GlcNAc
# Procedure, shortened: as §1
# [10] = target: Gal(b1-4)GlcNAc(b1-3)Gal(b1-4)GlcNAc(b1-3)Gal(b1-4)GlcNAc(b1-2)[Gal(b1-4)GlcNAc(b1-3)Gal(b1-4)GlcNAc(b1-3)Gal(b1-4)GlcNAc(b1-6)]Man(a1-6)[Gal(b1-4)GlcNAc(b1-3)Gal(b1-4)GlcNAc(b1-3)Gal(b1-4)GlcNAc(b1-2)Man(a1-3)]Man(b1-4)GlcNAc(b1-4)[Fuc(a1-6)]GlcNAc
# Procedure, shortened: as §1
# [11] = target: Gal(b1-4)GlcNAc(b1-3)Gal(b1-4)GlcNAc(b1-3)Gal(b1-4)GlcNAc(b1-3)Gal(b1-4)GlcNAc(b1-2)Man(a1-3)[Gal(b1-4)GlcNAc(b1-3)Gal(b1-4)GlcNAc(b1-3)Gal(b1-4)GlcNAc(b1-3)Gal(b1-4)GlcNAc(b1-2)Man(a1-6)]Man(b1-4)GlcNAc(b1-4)GlcNAc
# Procedure, shortened: as §1
# [12] = target: Gal(b1-4)GlcNAc(b1-3)Gal(b1-4)GlcNAc(b1-3)Gal(b1-4)GlcNAc(b1-3)Gal(b1-4)GlcNAc(b1-2)Man(a1-3)[Gal(b1-4)GlcNAc(b1-3)Gal(b1-4)GlcNAc(b1-3)Gal(b1-4)GlcNAc(b1-3)Gal(b1-4)GlcNAc(b1-2)Man(a1-6)]Man(b1-4)GlcNAc(b1-4)[Fuc(a1-6)]GlcNAc
# Procedure, shortened: as §1
# [13] = target: Gal(b1-4)GlcNAc(b1-3)Gal(b1-4)GlcNAc(b1-3)Gal(b1-4)GlcNAc(b1-3)Gal(b1-4)GlcNAc(b1-2)[Gal(b1-4)GlcNAc(b1-3)Gal(b1-4)GlcNAc(b1-3)Gal(b1-4)GlcNAc(b1-3)Gal(b1-4)GlcNAc(b1-6)]Man(a1-6)[Gal(b1-4)GlcNAc(b1-3)Gal(b1-4)GlcNAc(b1-3)Gal(b1-4)GlcNAc(b1-3)Gal(b1-4)GlcNAc(b1-2)Man(a1-3)]Man(b1-4)GlcNAc(b1-4)[Fuc(a1-6)]GlcNAc
# Procedure, shortened: as §1
# [14] = target: Gal(b1-4)GlcNAc(b1-3)Gal(b1-4)GlcNAc(b1-3)Gal(b1-4)GlcNAc(b1-3)Gal(b1-4)GlcNAc(b1-3)Gal(b1-4)GlcNAc(b1-2)Man(a1-3)[Gal(b1-4)GlcNAc(b1-3)Gal(b1-4)GlcNAc(b1-3)Gal(b1-4)GlcNAc(b1-3)Gal(b1-4)GlcNAc(b1-3)Gal(b1-4)GlcNAc(b1-2)Man(a1-6)]Man(b1-4)GlcNAc(b1-4)GlcNAc
# Procedure, shortened: as §1
# [15] = target: Gal(b1-4)GlcNAc(b1-3)Gal(b1-4)GlcNAc(b1-3)Gal(b1-4)GlcNAc(b1-3)Gal(b1-4)GlcNAc(b1-3)Gal(b1-4)GlcNAc(b1-2)Man(a1-3)[Gal(b1-4)GlcNAc(b1-3)Gal(b1-4)GlcNAc(b1-3)Gal(b1-4)GlcNAc(b1-3)Gal(b1-4)GlcNAc(b1-3)Gal(b1-4)GlcNAc(b1-2)Man(a1-6)]Man(b1-4)GlcNAc(b1-4)[Fuc(a1-6)]GlcNAc
# Procedure, shortened: as §1
# [16] = target: Gal(b1-4)GlcNAc(b1-3)Gal(b1-4)GlcNAc(b1-3)Gal(b1-4)GlcNAc(b1-3)Gal(b1-4)GlcNAc(b1-3)Gal(b1-4)GlcNAc(b1-2)[Gal(b1-4)GlcNAc(b1-3)Gal(b1-4)GlcNAc(b1-3)Gal(b1-4)GlcNAc(b1-3)Gal(b1-4)GlcNAc(b1-3)Gal(b1-4)GlcNAc(b1-6)]Man(a1-6)[Gal(b1-4)GlcNAc(b1-3)Gal(b1-4)GlcNAc(b1-3)Gal(b1-4)GlcNAc(b1-3)Gal(b1-4)GlcNAc(b1-3)Gal(b1-4)GlcNAc(b1-2)Man(a1-3)]Man(b1-4)GlcNAc(b1-4)[Fuc(a1-6)]GlcNAc
# Procedure, shortened: as §1
# [17] = target: Gal(b1-4)GlcNAc(b1-3)Gal(b1-4)GlcNAc(b1-3)Gal(b1-4)GlcNAc(b1-3)Gal(b1-4)GlcNAc(b1-3)Gal(b1-4)GlcNAc(b1-3)Gal(b1-4)GlcNAc(b1-2)Man(a1-3)[Gal(b1-4)GlcNAc(b1-3)Gal(b1-4)GlcNAc(b1-3)Gal(b1-4)GlcNAc(b1-3)Gal(b1-4)GlcNAc(b1-3)Gal(b1-4)GlcNAc(b1-3)Gal(b1-4)GlcNAc(b1-2)Man(a1-6)]Man(b1-4)GlcNAc(b1-4)GlcNAc
# Procedure, shortened: as §1
# [18] = target: Gal(b1-4)GlcNAc(b1-3)Gal(b1-4)GlcNAc(b1-3)GalNAc
# Procedure, shortened: as §1
# [19] = target: Gal(b1-4)GlcNAc(b1-3)Gal(b1-4)GlcNAc(b1-3)[Gal(b1-4)GlcNAc(b1-3)Gal(b1-4)GlcNAc(b1-6)]GalNAc
# Procedure, shortened: as §1
binder,measurement,setting,value
Epa3to2 (Candida glabrata) (protein) MGSSHHHHHHSSGLVPRGSHMKRELSSQNPFGYPIGCSPQDVAIIPGLTMELYSYPIVSGTPPNCYDASYVDPEYPRTGYLKRKMVGKSTGVTGNLNYKYSVEKACMVKYGNLPAGYNYNEPLTVSNFTMILYGYFKAQTTGLHTFFVNADDLLYINFGAGNAFDCCKREDSKTKLGEYVAYDIWHVDSSKNKVSLFLEKDLYYPIRMFFNNRDNNSSLDLSFSVNGATDQISDFSGYLYSVPDQPDTCPAHIGYDTTCR,glycan array binding signal (z-score),[1],0.733
same,glycan array binding signal (z-score),[2],-0.591
same,glycan array binding signal (z-score),[3],0.022
same,glycan array binding signal (z-score),[4],0.303
same,glycan array binding signal (z-score),[5],0.786
same,glycan array binding signal (z-score),[6],0.11
same,glycan array binding signal (z-score),[7],-0.689
same,glycan array binding signal (z-score),[8],1
same,glycan array binding signal (z-score),[9],0.162
same,glycan array binding signal (z-score),[10],-0.474
same,glycan array binding signal (z-score),[11],-0.691
same,glycan array binding signal (z-score),[12],-0.034
same,glycan array binding signal (z-score),[13],-0.799
same,glycan array binding signal (z-score),[14],0.722
same,glycan array binding signal (z-score),[15],-0.368
same,glycan array binding signal (z-score),[16],0.276
same,glycan array binding signal (z-score),[17],-0.835
same,glycan array binding signal (z-score),[18],1.26
same,glycan array binding signal (z-score),[19],1.05

# Shown with bars between the fields: entries from further up
binder | measurement | setting | value
Epa3to2 (Candida glabrata) (protein) MGSSHHHHHHSSGLVPRGSHMKRELSSQNPFGYPIGCSPQDVAIIPGLTMELYSYPIVSGTPPNCYDASYVDPEYPRTGYLKRKMVGKSTGVTGNLNYKYSVEKACMVKYGNLPAGYNYNEPLTVSNFTMILYGYFKAQTTGLHTFFVNADDLLYINFGAGNAFDCCKREDSKTKLGEYVAYDIWHVDSSKNKVSLFLEKDLYYPIRMFFNNRDNNSSLDLSFSVNGATDQISDFSGYLYSVPDQPDTCPAHIGYDTTCR | glycan array binding signal (z-score) | [18] | 1.26
same | glycan array binding signal (z-score) | [19] | 1.05
